{"source": "PubChem BioAssay AID2685", "about": "(National Center for Advancing Translational Sciences (NCATS), 2010)", "note": "Out of some 320,000 compounds screened, about 2,100 (0.66%) were called active. Inconclusive results, whose numbers are uncertain, are shown with a selection of clear calls. The call rests on the fitted dose curve; in most records, active means well fitted inhibition curve with a large enough effect in the signal ratio, with a control signal flat (not every such curve was filed as active); inconclusive means small, poorly fitted or top-dose-only effect, or effect the other way, or a change in a side signal; inactive means flat fitted curve, though single readings scatter; the % refers to the signal ratio. Potencies beside an inconclusive call are fits to weak or partial responses and may not hold up. On the % scale 0 is the no-effect control and ±100 the full control effect; potency means the concentration at half of the fitted maximal effect.", "data": [{"test": "qHTS Assay for Lipid Storage Modulators in Drosophila S3 Cells", "settings": "BODIPY lipid droplet fluorescence, 18-24 h, cells fed with added oleic acid; lipid storage change, negative = inhibition: at 46.1 µM (top of the series) unless noted", "how_it_was_run": "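Laser-scanning cytometry quantifies lipid droplet accumulation (500–530 nm total intensity; droplet/cell object ratio) in oleic acid-fed (400 uM added) Drosophila S3 cells treated with a concentration series. 20 uM Triacsin C defined 100% inhibition.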", "values": [{"smiles": "CCOC(=O)C1=NNC(C(=O)c2ccc(Cl)cc2)C1c1ccccc1", "note": "(stereo not given)", "lipid storage change, negative = inhibition": "inconclusive: 24.8%"}, {"smiles": "CCn1ncc(/C=C2/SC(=S)NC2=O)c1C", "lipid storage change, negative = inhibition": "inconclusive: 2.22%"}, {"smiles": "CCN1CCN(C(=O)Cn2cnc3sc(C)c(S(=O)(=O)N4CCN(c5ncccn5)CC4)c3c2=O)CC1", "lipid storage change, negative = inhibition": "inconclusive: 8.31%"}, {"smiles": "Cc1ccn2c(NC(C)(C)C)c(-c3cccs3)nc2c1", "lipid storage change, negative = inhibition": "inconclusive: -21.3%"}, {"smiles": "Cc1cc[n+](C2=C([O-])c3ccccc3C(=O)/C2=N\\S(=O)(=O)c2cccs2)cc1C", "Potency": "active: 8.2 µM"}, {"smiles": "COc1ccc(C2(C(=O)NCc3ccccc3Cl)CCOCC2)cc1OC", "lipid storage change, negative = inhibition": "inactive"}, {"smiles": "COC(CNC(=O)CNC(=S)N(CCCN1CCOCC1)Cc1cccs1)OC", "Potency": "inconclusive: 0.103 µM [falling, full curve, poor fit]"}, {"smiles": "Cc1ccc(CNC(=O)CN2C(=O)CSc3ccc(S(=O)(=O)N4CCC(C)CC4)cc32)cc1", "lipid storage change, negative = inhibition": "inconclusive: 92.1%"}, {"smiles": "COC(=O)N/N=C/c1c(C)nn(-c2cccc(Cl)c2)c1Cl", "lipid storage change, negative = inhibition": "inconclusive: 3.49%"}, {"smiles": "O=C(COc1cccc2ccccc12)NNC(=O)CSCCO", "lipid storage change, negative = inhibition": "inconclusive: 150%"}, {"smiles": "CCOc1cc(/C=C2\\C(=O)N(Cc3ccco3)C(C)=C2C(=O)OC)ccc1O", "Potency": "inconclusive: 20.6 µM [falling, single point]"}, {"smiles": "O=C(CCC(=O)Nc1ccccc1Cl)NNC(=O)c1ccccc1[N+](=O)[O-]", "lipid storage change, negative = inhibition": "inconclusive: -10.8%"}, {"smiles": "COc1ccccc1C(=O)Nc1cccc(NC(=O)c2ccccc2C)c1", "lipid storage change, negative = inhibition": "inconclusive: -13.4%"}, {"smiles": "CCOc1cc(/C=C2\\C(=O)N(Cc3ccc(C)cc3)C(C)=C2C(=O)OC)ccc1O", "lipid storage change, negative = inhibition": "inconclusive: -28.3%"}, {"smiles": "CC1CC(=O)N(CC(=O)Nc2cccc(Cl)c2)c2ccccc2S1(=O)=O", "note": "(stereo not given)", "Potency": "inconclusive: 16.4 µM [activator, partial curve]"}, {"smiles": "CC(NC(=O)Cc1ccsc1)c1ccc(F)cc1", "note": "(stereo not given)", "lipid storage change, negative = inhibition": "inconclusive: 77.4%"}, {"smiles": "Cc1ccc(-c2nnc(-c3ccccc3)o2)cc1", "lipid storage change, negative = inhibition": "inconclusive: -21.4%"}, {"smiles": "COC(=O)c1ccc(C(=O)OC)c(NC(=S)N2CCN(c3ccc(F)cc3)CC2)c1", "lipid storage change, negative = inhibition": "inconclusive: 22.7%"}, {"smiles": "Cc1ccc(NC(=O)COC(=O)Cc2csc(-c3cccc(F)c3)n2)cc1C", "lipid storage change, negative = inhibition": "inconclusive: 19.2%"}, {"smiles": "COc1ccc(Cc2c(O)nc(SCC(=O)NC34CC5CC(CC(C5)C3)C4)[nH]c2=O)cc1", "lipid storage change, negative = inhibition": "inconclusive: -3%"}, {"smiles": "N#Cc1ccc(CSc2nnc(NC(=O)c3ccc(=O)[nH]c3)s2)cc1", "lipid storage change, negative = inhibition": "inconclusive: 8.27%"}, {"smiles": "O=C1OC(Nc2cc(Br)cc3cccnc23)c2ccccc21", "note": "(stereo not given)", "lipid storage change, negative = inhibition": "inconclusive: 47%"}, {"smiles": "N#C/C(=C1\\CCCN1)c1nc2ccccc2c(=O)[nH]1", "lipid storage change, negative = inhibition": "inconclusive: 13.5%"}, {"smiles": "CCOC(=O)C(NC(C)=O)C(=O)Nc1ccc(C)cc1C", "note": "(stereo not given)", "Potency": "inconclusive: 23.1 µM [falling, partial curve, poor fit]"}, {"smiles": "Cc1ccc([C@@H]2[C@@H]3C(=O)N(c4ccccc4)C(=O)[C@@H]3[C@]3(C)C(=O)N(Cc4ccc(-c5ccccc5)cc4)CC(=O)N23)o1", "Potency": "inconclusive: 18.4 µM [falling, single point]"}, {"smiles": "COc1cccc(-c2nn(C)c3sc(C(=O)N4CCN(c5ccccn5)CC4)cc23)c1", "Potency": "inconclusive: 2.06 µM [activator, partial curve]"}, {"smiles": "CCCc1cc(=O)oc2cc(C)cc(OC(C)C(=O)NCCCn3ccnc3)c12", "note": "(stereo not given)", "Potency": "inconclusive: 29.1 µM [activator, single point]"}, {"smiles": "O=C(Nc1nncs1)C1c2ccccc2Oc2ccccc21", "lipid storage change, negative = inhibition": "inconclusive: 36.3%"}, {"smiles": "COCCNC(=O)C(c1ccncc1)N(Cc1ccccc1)C(=O)Cn1nnc2ccccc21", "note": "(stereo not given)", "lipid storage change, negative = inhibition": "inconclusive: 13.3%"}, {"smiles": "CC(=O)c1cccc(NS(=O)(=O)c2ccc(N/C=C\\C(=O)c3ccc(F)cc3)cc2)c1", "Potency": "inconclusive: 29.1 µM [falling, single point]"}, {"smiles": "COCCCNC(=O)Cc1ccc(S(=O)(=O)N2CCOCC2)s1", "Potency": "inconclusive: 1.46 µM [falling, partial curve]"}, {"smiles": "OCC[C@@H]1C[C@H](O)[C@@H](O)[C@@]2(Cc3ccccc3CCO2)O1", "lipid storage change, negative = inhibition": "inconclusive: 28.6%"}, {"smiles": "Cc1ccnc(NC(=S)NC(=O)/C=C/c2ccccc2)c1", "lipid storage change, negative = inhibition": "inconclusive: 24.9%"}, {"smiles": "COC(=O)c1ccc(N2CCN(C)CC2)c(NC(=O)COc2cccc(C)c2)c1", "Potency": "inconclusive: 29.1 µM [falling, single point]"}, {"smiles": "C[C@@H]1CN=C2N(CCNC(=O)CCC3CCCCC3)[C@H](Cc3ccc(O)cc3)CN21", "lipid storage change, negative = inhibition": "inconclusive: -0.357%"}, {"smiles": "Cc1ccc(-c2csc(N3CCC[C@@H]3C(=O)NCCn3c(-c4ccncc4)nc4ccccc43)n2)cc1", "Potency": "inconclusive: 23.1 µM [falling, single point]"}, {"smiles": "Cc1ccc(S(=O)(=O)NCCNc2ccc([N+](=O)[O-])cc2)cc1", "lipid storage change, negative = inhibition": "inconclusive: 6.67%"}, {"smiles": "O=C(CCCC(=O)N(CC(=O)NC1CCCC1)c1cccc(F)c1)Nc1ccccn1", "Potency": "inconclusive: 0.58 µM [activator, single point]"}, {"smiles": "NC(=O)c1ccc(NC(=O)COC(=O)C2(c3ccccc3F)CCCC2)cc1", "lipid storage change, negative = inhibition": "inconclusive: 29.3%"}, {"smiles": "COc1ccc(CNC(=O)c2cc(=O)c3c(C)cc(C)cc3o2)cc1", "lipid storage change, negative = inhibition": "inconclusive: 11%"}, {"smiles": "CCCCN1C(=O)c2ccc(C(=O)OCC(=O)N3CCN(c4ccccc4)CC3)cc2C1=O", "lipid storage change, negative = inhibition": "inconclusive: 17.5%"}, {"smiles": "N/C(CC(=O)NC1CCCCC1)=N\\OCC(=O)Nc1ccc(Cl)c(Cl)c1", "lipid storage change, negative = inhibition": "inconclusive: 36.6%"}, {"smiles": "COc1ccccc1N1CCN(/N=C\\C(Br)=C\\c2ccccc2)CC1", "lipid storage change, negative = inhibition": "inconclusive: -76.1%"}, {"smiles": "Cc1ccccc1NC(=S)N1CCC(NC(=O)c2ccco2)CC1", "Potency": "inconclusive: 13 µM [cytotoxic, partial curve]"}, {"smiles": "CN(C)CC/C=C1/c2cc(F)ccc2CSc2ccc(F)cc21", "lipid storage change, negative = inhibition": "inconclusive: 46.7%"}, {"smiles": "CC(C)(C)OC(=O)NCCCC(CCCNC(=O)OC(C)(C)C)C(=O)O", "Potency": "active: 16.4 µM"}, {"smiles": "CC(=O)c1ccc(NC(=O)COC(=O)c2ccccc2N=Nc2ccc(N(C)C)cc2)cc1", "Potency": "inconclusive: 6.51 µM [falling, single point]"}, {"smiles": "O/N=C1\\CCCc2c1nc(-c1ccccc1F)n2O", "lipid storage change, negative = inhibition": "inactive"}, {"smiles": "Cc1nn(C)cc1/C=N/NC(=O)c1ccc2c(c1)OCO2", "lipid storage change, negative = inhibition": "inconclusive: -36.7%"}, {"smiles": "C[C@@H](C(=O)NCC1CCCO1)N1C(=O)N2CCc3c([nH]c4ccccc34)[C@@]2(C)C1=O", "note": "(stereo not given in full)", "lipid storage change, negative = inhibition": "inconclusive: -30.2%"}, {"smiles": "O=C(Nc1ccccc1)N1CCCN(c2ccc(C(F)(F)F)cc2[N+](=O)[O-])CC1", "lipid storage change, negative = inhibition": "inconclusive: 4.22%"}, {"smiles": "CSc1ccc(C(=O)C2CCCN(C(=O)c3ccsc3)C2)cc1", "note": "(stereo not given)", "Potency": "inconclusive: 10.3 µM [falling, partial curve]"}, {"smiles": "COc1cccc(CNC(=O)N2CCN(c3ccccc3Cl)CC2)c1", "lipid storage change, negative = inhibition": "inconclusive: 132%"}, {"smiles": "COc1ccc(OC)c(NC(=O)CSc2n[nH]c(-c3cccnc3)n2)c1", "Potency": "inconclusive: 29.1 µM [activator, single point]"}, {"smiles": "COc1ccc(C(=O)Nc2nccs2)cc1", "lipid storage change, negative = inhibition": "inconclusive: -3.54%"}, {"smiles": "O=C(O)C1C2CCC(C2)C1C(=O)NCCC1=CCCCC1", "note": "(stereo not given)", "lipid storage change, negative = inhibition": "inconclusive: -11.2%"}, {"smiles": "COc1ccc(S(=O)(=O)N2CCN(S(=O)(=O)c3c(F)cccc3F)CC2)cc1", "lipid storage change, negative = inhibition": "inconclusive: 19.1%"}, {"smiles": "O=C(COC(=O)/C=C/c1ccccc1)NCCNC(=O)COC(=O)/C=C/c1ccccc1", "lipid storage change, negative = inhibition": "inconclusive: 3.8%"}, {"smiles": "COC(=O)C1=C(C)N(CCCC(=O)O)C(=O)NC1c1cc2c(cc1[N+](=O)[O-])OCO2", "note": "(stereo not given)", "lipid storage change, negative = inhibition": "inconclusive: 21.5%"}, {"smiles": "Cc1cc(OCc2nn[nH]n2)c2c(C)c(Cc3ccccc3)c(=O)oc2c1", "lipid storage change, negative = inhibition": "inconclusive: 32.4%"}, {"smiles": "C=Cc1ccc(Cn2nc(-c3ccc(C)cc3)ccc2=O)cc1", "Potency": "inconclusive: 29.1 µM [falling, single point]"}, {"smiles": "COc1ccccc1NS(=O)(=O)c1ccc(/C=C/C(=O)N2CCN(C(C)=O)CC2)cc1", "Potency": "inconclusive: 16.4 µM [falling, single point]"}, {"smiles": "O=C(CCc1nnc2ccc(N3CCCCC3)nn12)NCC1CCN(Cc2ccc(F)cc2)CC1", "Potency": "inconclusive: 23.1 µM [falling, single point]"}, {"smiles": "Cc1cccc2cc(C(c3nnnn3CC3CCCO3)N3CCOCC3)c(=O)[nH]c12", "note": "(stereo not given)", "lipid storage change, negative = inhibition": "inconclusive: 20.6%"}, {"smiles": "COC(=O)c1ccc(NC(=O)CSCc2ccccc2C)cc1", "lipid storage change, negative = inhibition": "inconclusive: 0.925%"}, {"smiles": "COc1ccc(NC(=O)C2C3C=CC4(O3)C2C(=O)N(CCCN2CCCC(C)C2)C4C(=O)NC2CCCCC2)cc1", "note": "(stereo not given)", "lipid storage change, negative = inhibition": "inconclusive: 312%"}, {"smiles": "Cc1ccc(C(=O)Nc2ccccc2C(=O)NC(CC(=O)O)C(=O)O)cc1", "note": "(stereo not given)", "lipid storage change, negative = inhibition": "inconclusive: -1.37%"}, {"smiles": "COc1cc(C(=S)N2CCOCC2)cc(OC)c1OC(=O)c1cc([N+](=O)[O-])cc([N+](=O)[O-])c1", "lipid storage change, negative = inhibition": "inconclusive: 46.7%"}, {"smiles": "Cc1ccc(S(=O)(=O)N2CCOCC2)cc1NC(=O)CSc1nnnn1C1CCCC1", "lipid storage change, negative = inhibition": "inconclusive: -15.3%"}, {"smiles": "O=C(/C=C/c1ccccc1Cl)NCc1ccco1", "lipid storage change, negative = inhibition": "inconclusive: -17.9%"}, {"smiles": "COC(=O)c1c(C(=O)OC)c2ccccn2c1C(=O)c1ccccc1", "lipid storage change, negative = inhibition": "inconclusive: -29.5%"}, {"smiles": "Cc1nc(N)sc1N=Nc1ccc(F)cc1", "lipid storage change, negative = inhibition": "inconclusive: 33.8%"}, {"smiles": "O=C(NC1CCCCC1)C1CCCN(c2nnnn2-c2ccccc2)C1", "note": "(stereo not given)", "Potency": "inconclusive: 14.6 µM [activator, partial curve]"}, {"smiles": "COc1ccc(NS(=O)(=O)c2cccc(C(=O)N/N=C/c3cn(-c4ccccc4)nc3-c3ccc(OC)cc3)c2)cc1", "lipid storage change, negative = inhibition": "inconclusive: -2.73%"}, {"smiles": "CC(C)(C)c1cnnn1-c1ccc([N+](=O)[O-])cc1", "Potency": "inconclusive: 0.651 µM [falling, single point]"}]}]}
